Data taken from PubChem BioAssay AID330 (DTP/NCI, 2004).
The list does not hold the whole screen: it is rich in T/C values a quarter to a half above the control, in often repeated tests (any T/C) and in doses without a T/C. Further doses and runs are listed elsewhere. T/C is the treated group as % of the vehicle group. Some entries give survivors of the animals treated and no T/C: the source holds a T/C of zero for them, seemingly a mark for toxic or unscored doses. Some survivor counts are full or nearly so, which does not show that the dose was tolerated: the source hardly ever lists a survival T/C far under the control, and the zero likely stands for such cases as well. Counts of survivors are from the toxicity check (mostly the fifth day) where no day follows; animals may have died later. Schedules are NCI's codes, read here as Q, the interval in days (D) or hours (H), X, the number of doses. Some doses were run more than once; the values are given in rising order. Where survival is the endpoint, the PubChem record calls one and a half times the control and up active, and a quarter to a half above the control has no call in these data; cut-offs in other NCI protocols can differ.

Test system: P388 leukemia ip, CD2F1 mice, survival T/C
Assay: NCI In Vivo Anticancer Drug Screen. Data for tumor model P388 Leukemia (intraperitoneal) in CD2F1 (CDF1) mice
Conditions: T/C endpoint: median survival time, higher T/C = longer survival
[1] = dose: 240.0 mg/kg/injection, schedule: Q01DX005 (ip), vehicle: saline with Tween-80
[2] = dose: 200.0 mg/kg/injection, schedule: Q01DX005 (ip), vehicle: saline with Tween-80
[3] = dose: 100.0 mg/kg/injection, schedule: Q04DX002 (ip), vehicle: saline with Tween-80
[4] = dose: 400.0 mg/kg/injection, schedule: Q04DX002 (ip), vehicle: saline with Tween-80
[5] = dose: 200.0 mg/kg/injection, schedule: Q01DX009 (ip), vehicle: saline with Tween-80

## ClC1=CC(=N/Br)/C=CC/1=N/Br
dose: 400.0 mg/kg/injection, schedule: Q01DX005 (ip), vehicle: saline with Tween-80
  survivor count: 3 of 6 and 3 of 5

## CCOc1ccccc1NC(=O)/C(Cl)=C(\Cl)C(=O)O
[1]
  survivor count: 0 of 6

## N#Cc1c(N)nc2c(c(-c3ccc(Cl)cc3)nn2-c2ccccc2)c1C#N
dose: 30.0 mg/kg/injection, schedule: Q01DX005 (ip), vehicle: saline with Tween-80
  survivor count: 6 of 6
dose: 60.0 mg/kg/injection, schedule: Q01DX005 (ip), vehicle: saline with Tween-80
  survivor count: 6 of 6

## Nc1cccc2c1-c1ccccc1C2=O
dose: 50.0 mg/kg/injection, schedule: Q01DX005 (ip), vehicle: saline with Tween-80
  survivor count: 5 of 5
[2]
  survivor count: 5 of 5

## CN(c1ccccc1)C1C2=C(OC(=O)C1(Cl)Cl)c1sc(-c3ccccc3)nc1CC2 (stereo not given)
[3]
  survivor count: 6 of 6
[4]
  survivor count: 6 of 6

## O=C1c2ccccc2C(=O)N1CC[P+](c1ccc(Cl)cc1)(c1ccc(Cl)cc1)c1ccc(Cl)cc1
dose: 50.0 mg/kg/injection, schedule: Q01DX009 (ip), vehicle: other
  survivor count: 3 of 6
dose: 100.0 mg/kg/injection, schedule: Q01DX009 (ip), vehicle: other
  survivor count: 0 of 6
dose: 200.0 mg/kg/injection, schedule: Q01DX009 (ip), vehicle: other
  survivor count: 0 of 6
dose: 400.0 mg/kg/injection, schedule: Q01DX009 (ip), vehicle: other
  survivor count: 0 of 6

## O=C1CC2C1C1C=CC2n2c(=O)n(-c3ccccc3)c(=O)n21 (stereo not given)
[3]
  survivor count: 6 of 6
dose: 200.0 mg/kg/injection, schedule: Q04DX002 (ip), vehicle: saline with Tween-80
  survivor count: 3 of 6
[4]
  survivor count: 2 of 6

## CC(=O)N1N=C(c2ccc(OCC(O)CN3CCN(CC(O)COc4ccc(C5=NN(C(C)=O)C(c6ccccc6)C5)cc4)CC3)cc2)CC1c1ccccc1 (stereo not given)
[2]
  survivor count: 5 of 6

## CN=C(c1ccc(NC(=O)c2ccc(C(=O)Nc3ccc(C(=NC)N(C)C)cc3)c(Cl)c2)cc1)N(C)C
dose: 6.25 mg/kg/injection, schedule: Q01DX005 (ip), vehicle: saline
  survivor count: 0 of 6
dose: 12.5 mg/kg/injection, schedule: Q01DX005 (ip), vehicle: saline
  survivor count: 0 of 6
dose: 50.0 mg/kg/injection, schedule: Q01DX005 (ip), vehicle: saline
  survivor count: 0 of 6
dose: 100.0 mg/kg/injection, schedule: Q01DX005 (ip), vehicle: saline
  survivor count: 0 of 6
dose: 200.0 mg/kg/injection, schedule: Q01DX005 (ip), vehicle: saline
  survivor count: 0 of 6

## Nc1nc(N)nc(N)n1
dose: 1600.0 mg/kg/injection, schedule: Q01DX009 (ip), vehicle: saline with Tween-80
  survivor count: 6 of 10

## CCCCN1C(=O)C2C3CCC(O3)C2C1=O (stereo not given)
[1]
  survivor count: 3 of 6

## CC(=O)OC1C(O)C(C)OC(OC2C(OC(=O)C3CCC4C(C3)OC3(CC(OC(=O)/C=C/c5ccccc5)C(C)CO3)C43CO3)OC(C)C(O)C2OC(C)=O)C1O (stereo not given)
dose: 2.0 mg/kg/injection, schedule: Q01DX005 (ip), vehicle: saline + alcohol
  T/C: 127 % of control
dose: 4.0 mg/kg/injection, schedule: Q01DX005 (ip), vehicle: saline + alcohol
  T/C: 128 % of control
dose: 4.0 mg/kg/injection, schedule: Q01DX009 (ip), vehicle: saline + alcohol
  T/C: 129 % of control
dose: 4.0 mg/kg/injection, schedule: Q01DX009 (ip), vehicle: saline
  T/C: 127 % of control
dose: 8.0 mg/kg/injection, schedule: Q01DX005 (ip), vehicle: saline + alcohol
  T/C: 149 % of control
dose: 8.0 mg/kg/injection, schedule: Q01DX009 (ip), vehicle: saline + alcohol
  T/C: 129 and 132 % of control
dose: 8.0 mg/kg/injection, schedule: Q01DX009 (ip), vehicle: saline
  T/C: 137 % of control
dose: 16.0 mg/kg/injection, schedule: Q01DX005 (ip), vehicle: saline + alcohol
  T/C: 144 % of control
dose: 16.0 mg/kg/injection, schedule: Q01DX009 (ip), vehicle: saline + alcohol
  T/C: 128 % of control
dose: 32.0 mg/kg/injection, schedule: Q01DX009 (ip), vehicle: saline + alcohol
  survivor count: 6 of 6

## Nc1nnc(SCCCCCCCCCCCCSc2nnc(N)s2)s1
dose: 100.0 mg/kg/injection, schedule: Q01DX005 (ip), vehicle: Klucel (hydroxypropylcellulose) (HPC)
  survivor count: 6 of 6

## O=C(CC(=O)C(F)(F)F)c1cc2ccccc2s1
[5]
  survivor count: 0 of 6

## COc1cccc2cc(-n3nnc4ccccc43)c(=O)oc12
dose: 120.0 mg/kg/injection, schedule: Q01DX005 (ip), vehicle: saline with Tween-80
  survivor count: 0 of 6 and 6 of 6

## Cc1cc2c3ccccc3[nH]c(=O)n2n1
dose: 400.0 mg/kg/injection, schedule: Q01DX009 (ip), vehicle: saline with Tween-80
  survivor count: 5 of 6

## C[N+]1(C)N=C([O-])N(c2ccccc2F)C1=O
dose: 400.0 mg/kg/injection, schedule: Q04DX003 (ip), vehicle: Klucel (hydroxypropylcellulose) (HPC)
  survivor count: 5 of 6

## O=S1(=O)CC(N2CCCCC2)C2=C(O1)c1ccccc1SC2 (stereo not given)
[5]
  survivor count: 6 of 6

## CC(=O)OC1OC(=O)C(C)(C(C)=O)C1C (stereo not given)
dose: 50.0 mg/kg/injection, schedule: Q01DX005 (ip), vehicle: distilled water + alcohol
  survivor count: 5 of 6
dose: 100.0 mg/kg/injection, schedule: Q01DX005 (ip), vehicle: distilled water + alcohol
  survivor count: 2 of 6
dose: 200.0 mg/kg/injection, schedule: Q01DX005 (ip), vehicle: distilled water + alcohol
  survivor count: 0 of 6

## CCN(CC)CCOC(=O)c1ccc(N=NC2Sc3nc4ccccc4n3C2=O)cc1 (stereo not given)
dose: 60.0 mg/kg/injection, schedule: Q01DX005 (ip), vehicle: Klucel (hydroxypropylcellulose) (HPC)
  survivor count: 6 of 6
dose: 120.0 mg/kg/injection, schedule: Q01DX005 (ip), vehicle: Klucel (hydroxypropylcellulose) (HPC)
  survivor count: 3 of 6
dose: 240.0 mg/kg/injection, schedule: Q01DX005 (ip), vehicle: Klucel (hydroxypropylcellulose) (HPC)
  survivor count: 0 of 6
